# Laboratory results from PubChem BioAssay (NCATS).
# This is one part of the list. Shown are side measurements of this screen, not its main read-out; they come without a call. The list favours compounds with an active or inconclusive main result. Words in brackets tell the shape of the fitted curve; partial curves, single points and poor fits give uncertain potencies.
# Test: qHTS for identification of novel therapeutic agents for treatment of microphthalmiaassociated transcription factor (MiT) renal cell carcinoma (RCC) (AID 1963991)
# Settings: CellTiter-Glo, 48 h; for z-score: stronger effect = lower value
# Summary of the method: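 Three TFE3-fusion RCC cell lines (UOK109, UOK124, UOK145), 500 cells/well, were exposed to the 1912-compound MIPE 4.0 library for 48 hours at 37 C. Viability was read by CellTiter-Glo luminescence, normalised to DMSO (100%) and empty wells (0%), with 11-concentration curve fits.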
# [1] = TFE3-RCC UOK109 viability, measured here: UOK109 Z-AUC
# [2] = TFE3-RCC viability, measured here: UOK124 Z-AUC
# [3] = TFE3-RCC viability, measured here: UOK124 cell viability
# [4] = TFE3-RCC viability, measured here: UOK145 Z-AUC
# [5] = TFE3-RCC viability, measured here: UOK145 cell viability
Structure (SMILES),z-score [1],z-score [2],AC50 [3],z-score [4],AC50 [5]
CCOC(=O)[C@H](CCc1ccccc1)N[C@H]1CS[C@H](c2cccs2)CN(CC(=O)O)C1=O,-0.634,-0.00136,"4.18 µM [falling, full curve]",-0.313,"2.64 µM [falling, full curve]"
C=CCNc1c(O)cc2c(O)c1C[C@@H](C)C[C@H](OC)[C@@H](O)[C@@H](C)C=C(C)[C@H](OC(N)=O)[C@@H](OC)C=CC=C(C)C(=O)N2,-0.0125,-0.38,"0.469 µM [falling, full curve]",-1.41,"0.59 µM [falling, full curve]"
O=c1[nH]c(-c2ccc(C(F)(F)F)cc2)nc2c1CSCC2,0.531,0.385,"1.66 µM [falling, partial curve, poor fit]",0.524,"3.32 µM [falling, partial curve, poor fit]"
CCn1c(-c2nonc2N)nc2cncc(CNC3CCNCC3)c21,0.487,0.497,"11.8 µM [falling, partial curve]",-0.298,"14.8 µM [falling, partial curve]"
COc1ccccc1[C@H](c1cccc2ccccc12)[C@@](C)(C#N)C(=O)N1CCC(c2cccc(C(F)(F)F)c2)CC1,0.101,-0.174,"16.6 µM [falling, partial curve, poor fit]",0.831,"16.6 µM [falling, partial curve]"
C[C@@H]1CN(Cc2ccc(F)cc2)[C@@H](C)CN1C(=O)c1cc2c(C(=O)C(=O)N(C)C)cn(C)c2cc1Cl,0.28,1.34,"0.00743 µM [rising, full curve, poor fit]",0.446,"33.2 µM [falling, single point]"
COc1cccc2c1C(=O)c1c(O)c3c(c(O)c1C2=O)C[C@@](O)(C(=O)CO)C[C@H]3O[C@H]1C[C@H](N)[C@H](O)[C@H](C)O1,-1.63,-1.84,"0.118 µM [falling, full curve]",-0.77,"0.372 µM [falling, full curve]"
C=C1C(=CC=C2CCC[C@]3(C)[C@@H]([C@H](C)CCCC(C)(C)O)CC[C@@H]23)C[C@@H](O)C[C@@H]1O,-0.597,-1,"10.5 µM [falling, partial curve]",0.207,"9.35 µM [falling, full curve]"
Nc1nc(Cl)nc2c1ncn2[C@@H]1O[C@H](CO)[C@@H](O)[C@H]1F,-0.708,0.914,"0.0743 µM [falling, full curve]",-2.92,"0.0209 µM [falling, partial curve, poor fit]"
CC[C@H](C)n1cc(C)c2c(C(=O)NCc3c(C)cc(C)[nH]c3=O)cc(-c3ccc(N4CCNCC4)nc3)cc21,0.646,0.231,"33.2 µM [falling, single point]",0.11,"23.5 µM [falling, partial curve]"
CC=C(C)C(=O)O[C@H]1C(C)=C[C@]23C(=O)[C@@H](C=C(CO)[C@@H](O)[C@]12O)[C@H]1[C@@H](C[C@H]3C)C1(C)C,0.699,-1.46,"0.0296 µM [falling, full curve]",-1.56,"0.0662 µM [falling, full curve]"
CON(C)C(=O)N1N=C(c2cc(F)ccc2F)S[C@]1(CCCN)c1ccccc1,-1.77,-0.717,"37.2 µM [falling, single point]",-1.91,"26.4 µM [falling, single point]"
Cc1nc(NC(=O)N2CCC[C@@H]2C(N)=O)sc1-c1ccnc(C(C)(C)C(F)(F)F)c1,-0.503,-2.54,"20.9 µM [falling, partial curve]",-0.864,"11.8 µM [falling, partial curve]"
CCS(=O)(=O)N1CC(CC#N)(n2cc(-c3ncnc4[nH]ccc34)cn2)C1,0.859,-1.3,"0.0059 µM [falling, full curve, poor fit]",0.823,"26.4 µM [falling, single point]"
CC(=O)SCC(Cc1ccccc1)C(=O)NCC(=O)OCc1ccccc1 (stereo not given),-0.549,0.661,"23.5 µM [falling, partial curve]",-0.344,"2.64 µM [falling, full curve]"
N#CC(=C(N)Sc1ccccc1N)C(C#N)=C(N)Sc1ccccc1N,-1.48,-0.209,"5.26 µM [falling, partial curve, poor fit]",-0.524,"23.5 µM [falling, single point]"
COc1cc2ncnc(Nc3ccc(F)c(Cl)c3)c2cc1NC(=O)C=CCN1CCCCC1,-2.93,-0.526,"14.8 µM [falling, partial curve]",-0.185,"14.8 µM [falling, partial curve]"

Structure (SMILES),z-score [1],z-score [2],AC50 [3],z-score [4],AC50 [5]
C[C@H](NCc1ccc2c(c1)nc(NC(=O)c1ccc(-c3cn[nH]c3)s1)n2CCc1ccccc1)C(C)(C)C,-0.51,-3.12,"1.66 µM [falling, full curve]",-0.837,"3.32 µM [falling, full curve]"
C#C[C@]1(O)CC[C@@H]2[C@@H]3CCc4cc(O)ccc4[C@H]3CC[C@@]21C,0.2,0.138,"20.9 µM [falling, single point]",0.0603,"26.4 µM [falling, partial curve]"
CC1(C)S[C@H]2[C@H](NC(=O)[C@@H](N)c3ccc(O)cc3)C(=O)N2[C@@H]1C(=O)O,-2.4,0.355,"3.72 µM [falling, full curve]",0.388,"2.35 µM [falling, full curve]"
Cn1c(=O)c(-c2c(Cl)cccc2Cl)cc2cnc(Nc3cccc(C(=O)O)c3)nc21,0.154,-0.216,"1.05 µM [falling, full curve]",0.149,"0.662 µM [falling, full curve]"
Cc1ccc2nc(NC(=O)CSc3nc4c(c(=O)n3-c3ccccc3)SCC4)sc2c1,0.394,0.323,"11.8 µM [falling, partial curve]",-0.362,"20.9 µM [falling, partial curve]"
CCC(=O)OCC(=O)[C@@]1(OC(=O)CC)[C@@H](C)C[C@@H]2[C@H]3CCC4=CC(=O)C=C[C@]4(C)[C@@]3(F)[C@@H](O)C[C@@]21C,-0.892,0.648,"18.7 µM [falling, partial curve, poor fit]",1.84,"5.26 µM [falling, partial curve]"
C[C@H](NC(=O)C(C#N)=Cc1cccc(Br)n1)c1ccccc1,0.0279,-1.35,"2.96 µM [falling, full curve]",0.0444,"16.6 µM [falling, partial curve]"
CC1(C)OC2=C(C(=O)c3ccccc3C2=O)[C@H](NCc2ccccc2)[C@H]1O,-0.725,-1.32,"2.64 µM [falling, full curve]",-0.449,"6.62 µM [falling, full curve]"
C[C@@H]1CC(=O)NN=C1c1ccc(NN=C(C#N)C#N)cc1,0.266,0.0091,"23.5 µM [falling, single point]",-0.0592,"20.9 µM [falling, partial curve]"
CCCCCCCCCCCCCCCC(=O)O[C@H]1[C@@H](O)[C@@H](O)[C@@H]([C@H](NC(=O)[C@@H]2C[C@@H](CCC)CN2C)[C@H](C)Cl)O[C@@H]1SC,0.654,1.03,"23.5 µM [falling, single point]",0.752,"37.2 µM [falling, single point]"
COc1ccc2c(c1OC)C(=O)OC2[C@H]1c2c(cc3c(c2OC)OCO3)CCN1C (stereo not given in full),-0.238,0.17,"0.187 µM [falling, full curve]",-0.356,"0.332 µM [falling, full curve]"
COc1ccc2c3n(c(=NC(=O)c4cccnc4)nc2c1OC)CCN3,-0.468,1.28,"0.59 µM [falling, full curve]",0.0154,"3.32 µM [falling, full curve]"
COc1cc2c(N3CCN(C(=O)Nc4ccc(OC(C)C)cc4)CC3)ncnc2cc1OCCCN1CCCCC1,0.378,-2.57,"23.5 µM [falling, single point]",0.104,"37.2 µM [falling, single point]"
CCC(=C(c1ccc(O)cc1)c1ccc(OCCNC)cc1)c1ccccc1,-0.499,-0.575,"23.5 µM [falling, partial curve]",0.187,"23.5 µM [falling, partial curve]"
C[C@H](NCc1ccc(OCc2cccc(F)c2)cc1)C(N)=O,-0.688,-0.907,"5.9 µM [falling, full curve]",-0.364,"9.35 µM [falling, partial curve]"
Cc1[nH]c(C=C2C(=O)Nc3ccc(S(=O)(=O)Cc4c(Cl)cccc4Cl)cc32)c(C)c1C(=O)N1CCC[C@H]1CN1CCCC1,0.251,0.14,"16.6 µM [falling, partial curve]",0.214,"26.4 µM [falling, partial curve]"
Cc1cc(Nc2ncnc3ccc(-c4ccc(CNCCS(C)(=O)=O)o4)cc23)ccc1Oc1ccn2ncnc2c1,-0.421,-0.731,"20.9 µM [falling, partial curve]",-0.251,"18.7 µM [falling, partial curve]"
